{
  "source": "patent US10124008B2",
  "about": "“Use of inhibitors of acid sphingomyelinase to treat acquired and inherited retinal degenerations” (Wisconsin Alumni Research Foundation, priority 2014, dated 2018)",
  "test_system": "acetylated tubulin in polarized primary RPE",
  "experiment": "Immunofluorescence staining of acetylated and tyrosinated tubulin",
  "assay_type": "cell-based, porcine",
  "conditions": "inhibitors 10 μM for 3 h, 48 h after A2E treatment",
  "procedure": "ALEXAFLUOR secondary antibodies were used at 1:500 and rhodamine-phalloidin (Cytoskeleton, PHDR1) at 1:200. Filters were mounted under coverslips on glass slides under […] (Vector labs), sealed and visualized with Andor Revolution XD spinning disk confocal microscope using a 60×1.4 NA oil objective with identical exposures and gains for each antibody. Acetylated tubulin-labeled stable microtubules (≥5 μm in length) after nocodazole treatment were analyzed manually in the Surpass mode of Imaris (Bitplane).\nWe performed two initial screens: first, we compared the ability of functional inhibitors (fluoxetine and amitriptyline) with that of the lone structural ASMase inhibitor zoledronic acid in decreasing acetylated tubulin. Here, polarized RPE monolayers with or without A2E were treated with one of the three inhibitors (10 μM, 3 h). Desipramine as a positive control. At the end of the incubation period, cells were fixed and stained for acetylated tubulin, imaged and the amount of acetylated tubulin in the cells was quantified. Second, we evaluated three additional drugs (sertraline, astemizole and fexofenadine) for their abilities to increase autophagy in the RPE. Cells with or without bisretinoids were transfected with mRFP-GFP-LC3, starved to induce autophagy, treated with drugs and imaged as in FIG. 9D.",
  "note": "Entries after “also recorded” stand apart in the source; their conditions may differ. At least one structure is not confirmed: it was looked up by name or label, or the drawing left a doubt.",
  "data": [
    {"smiles": "O=P(O)(O)C(O)(Cn1ccnc1)P(=O)(O)O", "note": "[zoledronic acid]", "values": [
      {"measurement": "acetylated tubulin in RPE with A2E", "value": "more effective than the functional inhibitors; also recorded: dramatically decreases acetylated tubulin in RPE with bisretinoids; also recorded: decreased acetylated tubulin levels in RPE with A2E back to control levels"}
    ]}
  ]
}
